Drug screen on melanoma cell lines: apoptosis marker

Source: doi:10.1371/journal.pone.0140310, primary screening data, rounded.

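Human melanoma cells were exposed to two drugs together for 72 h in 1,536-well plates and read by automated microscopy after fixing and staining. Values are the share of nuclei positive for cleaved PARP as a percentage of the same share in the DMSO control: 100 is the control level, higher means more apoptosis. Every drug was used at one fixed concentration, the higher of two screened. The file gives one value for each pair and line, without errors, so small differences may be noise. The marker varies much from line to line, for technical or biological reasons.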
This is part of the screen, not chosen by result.

Drugs:
fingolimod, 10 µM: CCCCCCCCc1ccc(CCC(N)(CO)CO)cc1
PD173074, 0.5 µM: CCN(CC)CCCCNc1ncc2cc(-c3cc(OC)cc(OC)c3)c(NC(=O)NC(C)(C)C)nc2n1
GSK0660, 5 µM: COC(=O)c1sccc1S(=O)(=O)Nc1ccc(Nc2ccccc2)cc1OC
ABT-263, 2 µM: CC1(C)CCC(c2ccc(Cl)cc2)=C(CN2CCN(c3ccc(C(=O)NS(=O)(=O)c4ccc(N[C@H](CCN5CCOCC5)CSc5ccccc5)c(S(=O)(=O)C(F)(F)F)c4)cc3)CC2)C1
GW9662, 10 µM: O=C(Nc1ccccc1)c1cc([N+](=O)[O-])ccc1Cl
vismodegib, 5 µM: CS(=O)(=O)c1ccc(C(=O)Nc2ccc(Cl)c(-c3ccccn3)c2)c(Cl)c1
L-779450, 1 µM: Oc1cc(-c2nc(-c3ccccc3)[nH]c2-c2ccncc2)ccc1Cl
GW0742, 10 µM: Cc1cc(SCc2sc(-c3ccc(C(F)(F)F)c(F)c3)nc2C)ccc1OCC(=O)O
everolimus, 0.1 µM: CO[C@H]1C[C@@H]2CC[C@@H](C)[C@@](O)(O2)C(=O)C(=O)N2CCCC[C@H]2C(=O)O[C@H]([C@H](C)C[C@@H]2CC[C@@H](OCCO)[C@H](OC)C2)CC(=O)[C@H](C)/C=C(\C)[C@@H](O)[C@@H](OC)C(=O)[C@H](C)C[C@H](C)/C=C/C=C/C=C/1C
cediranib, 2 µM: COc1cc2c(Oc3ccc4[nH]c(C)cc4c3F)ncnc2cc1OCCCN1CCCC1
MK-1775, 0.1 µM: C=CCn1c(=O)c2cnc(Nc3ccc(N4CCN(C)CC4)cc3)nc2n1-c1cccc(C(C)(C)O)n1
T0901317, 7 µM: O=S(=O)(c1ccccc1)N(CC(F)(F)F)c1ccc(C(O)(C(F)(F)F)C(F)(F)F)cc1
erlotinib, 4 µM: C#Cc1cccc(Nc2ncnc3cc(OCCOC)c(OCCOC)cc23)c1
LFM-A13, 10 µM: C/C(O)=C(\C#N)C(=O)Nc1cc(Br)ccc1Br
OSI-906, 2 µM: C[C@]1(O)C[C@@H](c2nc(-c3ccc4ccc(-c5ccccc5)nc4c3)c3c(N)nccn32)C1
KU-55933, 5 µM: O=c1cc(-c2cccc3c2Sc2ccccc2S3)oc(N2CCOCC2)c1
STA-4783, 0.03 µM: CN(NC(=O)CC(=O)NN(C)C(=S)c1ccccc1)C(=S)c1ccccc1
tamatinib, 2 µM: COc1cc(Nc2ncc(F)c(Nc3ccc4c(n3)NC(=O)C(C)(C)O4)n2)cc(OC)c1OC
palbociclib, 0.2 µM: CC(=O)c1c(C)c2cnc(Nc3ccc(N4CCNCC4)cn3)nc2n(C2CCCC2)c1=O

Drugs | WM1745
GSK0660 + STA-4783 | 293
LFM-A13 + GW0742 | 101
GW9662 + MK-1775 | 192
OSI-906 + palbociclib | 149
LFM-A13 + cediranib | 110
STA-4783 + OSI-906 | 382
PD173074 + T0901317 | 136
palbociclib + MK-1775 | 117
GW0742 + cediranib | 656
vismodegib + erlotinib | 147
fingolimod + palbociclib | 2740
OSI-906 + everolimus | 154
erlotinib + ABT-263 | 2610
KU-55933 + GSK0660 | 186
PD173074 + L-779450 | 189
tamatinib + GW0742 | 212
erlotinib + L-779450 | 281
tamatinib + erlotinib | 170

For reference, 2 entries once more:

Drugs	WM1745
LFM-A13 + cediranib	110
KU-55933 + GSK0660	186